These are yes or no findings as the source states them, for the method shown. Some entries that bind do so weakly or less than the wild type.

The target of this assay is recombinant HER-2 (UniProt P04626). Description: flow cytometry of engineered T cells incubated with recombinant HER-2 (Fig. 4A). (In general: In flow cytometry, cells or beads pass a laser one at a time.)

B1: Anti-HER-2 DARPin CAR (protein, not shown: small tags and cut ends)
chain: MSRGSDLGKKLLEAARAGQDDEVRILMANGADVNAKDEYGLTPLYLATAHGHLEIVEVLLKNGADVNAVDAIGFTPLHLAAFIGHLEIAEVLLKHGADVNAQDKFGKTAFDISIGNGNEDLAEILQKLN
As for B1, the binding entry is on record as “binds”.

(Values after EP3823984A1.)
